{"source": "patent US20200121616A1", "about": "“COMPOSITIONS COMPRISING CANNABIDIOL AND HYALURONIC ACID FOR TREATING INFLAMMATORY JOINT DISEASES” (BOL PHARMA LTD., priority 2015, published 2020)", "origin": "cited, not measured here", "data": [{"smiles": "C=C(C)[C@@H]1CCC(C)=C[C@H]1c1c(O)cc(CCCCC)cc1O", "note": "[Cannabidiol]", "values": [{"measurement": "solubility in organic solvents", "setting": "organic solvents, such as oil", "value": "soluble"}, {"measurement": "solubility in water", "setting": "water", "value": "insoluble"}]}]}
